{
  "source": "paper PMC7819943",
  "about": "“Rice protein-binding microarrays: a tool to detect cis-acting elements near promoter regions in rice”",
  "note": "This is one part of the list.",
  "data": [
    {"target": "T1, OsSMF1 (Oryza sativa, UniProt Q6ZLB0 1-436)", "T1 sequence": "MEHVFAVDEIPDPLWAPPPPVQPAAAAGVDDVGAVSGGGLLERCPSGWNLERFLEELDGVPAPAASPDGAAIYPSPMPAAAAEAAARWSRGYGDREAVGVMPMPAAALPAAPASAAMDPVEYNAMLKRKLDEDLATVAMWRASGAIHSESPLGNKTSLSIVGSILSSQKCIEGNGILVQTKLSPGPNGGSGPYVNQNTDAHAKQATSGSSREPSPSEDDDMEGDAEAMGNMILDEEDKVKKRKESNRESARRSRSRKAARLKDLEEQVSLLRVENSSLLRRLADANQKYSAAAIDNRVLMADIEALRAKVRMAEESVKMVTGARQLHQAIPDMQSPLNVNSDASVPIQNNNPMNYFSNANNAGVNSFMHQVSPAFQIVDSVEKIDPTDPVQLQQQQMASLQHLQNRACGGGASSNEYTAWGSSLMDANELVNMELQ", "experiment": "protein-binding microarray (RPBM); PBS, 2% BSA, 51.3 ng/ul salmon testes DNA, 50 uM zinc acetate, 200 nM TF, 25 C, 1 h; high values mean tight binding", "conditions": "protein: recombinant; tags: N-terminal polyhistidine and DsRed monomer fusion (pET32a); chain copies: 2; label: CyDye5-dUTP incorporated in the synthesized complementary strand; 3' TTTTT single-stranded linker to array surface; dsDNA, one strand shown", "procedure,_shortened": "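Ni–NTA purification followed expression in E. coli BL21-CodonPlus of transcription factors fused N-terminally to a polyhistidine tag and DsRed. At 200 nM in PBS with 2% BSA, salmon testes DNA and 50 µM zinc acetate, the protein was incubated for 1 h at 25 °C with a custom Agilent array that had been primer-extended with Cy5-dUTP and blocked with 2% BSA. After washing, the array was read on an Axon 4000B scanner. The binding signal is per-feature fluorescence intensity in arbitrary units.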", "values": [
      {"sequence": "ATATTCAGCAACGCCTGCTCACACAGTGACACAGATGATCCGGAGTCACCTAGTGCAG", "binding signal": "4290 fluorescence intensity (a.u.)"},
      {"sequence": "ATGCCCATGCAAGGAAAACGCCCATCCAACCACGGTGCACCGGAGTCACCTAGTGCAG", "binding signal": "3570 fluorescence intensity (a.u.)"},
      {"sequence": "CCGGCCAGTGAAGGGGATGGTGACTGGTGTCTGGTGAGTGCGGAGTCACCTAGTGCAG", "binding signal": "3570 fluorescence intensity (a.u.)"},
      {"sequence": "TGTGCTAAGAAAATAGATTATATCATTGTCATCCAAATTTCGGAGTCACCTAGTGCAG", "binding signal": "3170 fluorescence intensity (a.u.)"},
      {"sequence": "GCTCGACTCGCTGTTGTTGACGGTGAGGAGGGCGCTTGCCCGGAGTCACCTAGTGCAG", "binding signal": "3470 fluorescence intensity (a.u.)"},
      {"sequence": "CTCTTTATTCGGGTACCACTCTCGATGCTGCACCGTGACGCGGAGTCACCTAGTGCAG", "binding signal": "3270 fluorescence intensity (a.u.)"},
      {"sequence": "TATATATATATATGACGTATGTATTTCATGGTGTAATAGCCGGAGTCACCTAGTGCAG", "binding signal": "4860 fluorescence intensity (a.u.)"},
      {"sequence": "ATGAAGCGCCGCGTTGCAGGCTGCAGGAGACGTCAGCAGTCGGAGTCACCTAGTGCAG", "binding signal": "6660 fluorescence intensity (a.u.)"},
      {"sequence": "TGATCAAAACAGGATAGCTGCATCACCACGTCAACAACCACGGAGTCACCTAGTGCAG", "binding signal": "7220 fluorescence intensity (a.u.)"},
      {"sequence": "ATGTGGGGAAGCCCTGGAACTGCTGTACCAGGTACGCAATCGGAGTCACCTAGTGCAG", "binding signal": "4740 fluorescence intensity (a.u.)"},
      {"sequence": "CTTGCATTCCTTTTCTTCTCCTGAACTATATAAACACACTCGGAGTCACCTAGTGCAG", "binding signal": "3290 fluorescence intensity (a.u.)"},
      {"sequence": "CTGCTCGATCAAAATCCTCCAACAACTCGATCCATTCGCACGGAGTCACCTAGTGCAG", "binding signal": "3250 fluorescence intensity (a.u.)"},
      {"sequence": "TCCCGGGCAACTTTAAGTTATTGGGCCTCGGCCAACGTGTCGGAGTCACCTAGTGCAG", "binding signal": "3620 fluorescence intensity (a.u.)"},
      {"sequence": "ATGCCATATATTGTACCTCTCTGCCGTATTACATTTACATCGGAGTCACCTAGTGCAG", "binding signal": "4160 fluorescence intensity (a.u.)"},
      {"sequence": "AAGATCGTCGTCACTCGCGGCGCCACACAAGAAGTTCGTCCGGAGTCACCTAGTGCAG", "binding signal": "3470 fluorescence intensity (a.u.)"},
      {"sequence": "GCGTGGTGGGACCCGGGTTCCCACGGCGTGGCACGTTGGGCGGAGTCACCTAGTGCAG", "binding signal": "3280 fluorescence intensity (a.u.)"},
      {"sequence": "TGTGATGCCCTCGCGTGACACGCACGAGCTGCCGCCTTTGCGGAGTCACCTAGTGCAG", "binding signal": "4690 fluorescence intensity (a.u.)"},
      {"sequence": "GCCATTGATTGCCCATGCACTGACACGACCACAGATGCCTCGGAGTCACCTAGTGCAG", "binding signal": "3270 fluorescence intensity (a.u.)"},
      {"sequence": "TCACTCATTCACTCTCCACGCTTTCACTTCACTCGCCCACCGGAGTCACCTAGTGCAG", "binding signal": "3260 fluorescence intensity (a.u.)"},
      {"sequence": "CACAGCCCACAGGCCGCTCCTCGCGGTGTCCACGTGGGATCGGAGTCACCTAGTGCAG", "binding signal": "14400 fluorescence intensity (a.u.)"},
      {"sequence": "CACGAGTGTTCACGTCGACCATAATGGCACCACCACCCCGCGGAGTCACCTAGTGCAG", "binding signal": "3520 fluorescence intensity (a.u.)"},
      {"sequence": "CTATTTGGCGCTGAGGTGTCTAAGTTCAGCGCCACACGATCGGAGTCACCTAGTGCAG", "binding signal": "3860 fluorescence intensity (a.u.)"},
      {"sequence": "GAGAGGGGAAGGGCGCTAGTAAGAAGCGCTAAGGGATGAGCGGAGTCACCTAGTGCAG", "binding signal": "3180 fluorescence intensity (a.u.)"},
      {"sequence": "CGCTTGGGACCACGCCGTCATCTCCGACGAAATCTACGCCCGGAGTCACCTAGTGCAG", "binding signal": "3960 fluorescence intensity (a.u.)"},
      {"sequence": "CAGGGTCCAGTTGACAGTGTTACGTGACGTACGCAAACCTCGGAGTCACCTAGTGCAG", "binding signal": "8350 fluorescence intensity (a.u.)"},
      {"sequence": "TTTTGGCTGCGGAATCCACCCGTGAAACCGAGGGCCGCGTCGGAGTCACCTAGTGCAG", "binding signal": "5010 fluorescence intensity (a.u.)"},
      {"sequence": "CCGCCGGTAAAACCGCGCGCTCCATGCCCACGAAGCAACCCGGAGTCACCTAGTGCAG", "binding signal": "36000 fluorescence intensity (a.u.)"},
      {"sequence": "AGTGATCATACAGCCTTCCTGCTCTCTCTATTCTGTTTGCCGGAGTCACCTAGTGCAG", "binding signal": "28200 fluorescence intensity (a.u.)"},
      {"sequence": "GATTGTTGGTAGCTAGGTAGCTGTGGCCAAGAAAGTGAGACGGAGTCACCTAGTGCAG", "binding signal": "3810 fluorescence intensity (a.u.)"},
      {"sequence": "GTAAACTGAGTGTTACGATGATTCCATATCTGTCGTTTCGCGGAGTCACCTAGTGCAG", "binding signal": "3300 fluorescence intensity (a.u.)"},
      {"sequence": "CTAATCATCCATTAAGAGACTAAGCACCACCACTGAATCTCGGAGTCACCTAGTGCAG", "binding signal": "3310 fluorescence intensity (a.u.)"},
      {"sequence": "AAGAGGGCGCGGGTGGCGGGGATGGGCGAGGGGAAGGCGGCGGAGTCACCTAGTGCAG", "binding signal": "4570 fluorescence intensity (a.u.)"},
      {"sequence": "CTGCGTGTGATAAGATCTAAGAGAGAGGGGAGGAAGAGAACGGAGTCACCTAGTGCAG", "binding signal": "6620 fluorescence intensity (a.u.)"},
      {"sequence": "CCAAAGGAGTAGAAGATACAGCATGCGAGCAAGCAAGAGCCGGAGTCACCTAGTGCAG", "binding signal": "17700 fluorescence intensity (a.u.)"},
      {"sequence": "TGAGCTACCGTCCACGTTGCGGTCGTCGTCGAGCCCTTCACGGAGTCACCTAGTGCAG", "binding signal": "3790 fluorescence intensity (a.u.)"},
      {"sequence": "TCTGGTTGATTGCTTCATTTTACTACGTCACATTTTAGTCCGGAGTCACCTAGTGCAG", "binding signal": "4160 fluorescence intensity (a.u.)"},
      {"sequence": "AGATTCCGACGACAGCAAAGACAGCGACGGGAGGGGAGGGCGGAGTCACCTAGTGCAG", "binding signal": "3500 fluorescence intensity (a.u.)"},
      {"sequence": "TACTTTGGCCAAACATAGATGGAAATTTTATAATTCGTAACGGAGTCACCTAGTGCAG", "binding signal": "19900 fluorescence intensity (a.u.)"},
      {"sequence": "CCAGACGAATTCCGAAGCTTCCGGATACTGACGCTCCGAACGGAGTCACCTAGTGCAG", "binding signal": "20500 fluorescence intensity (a.u.)"},
      {"sequence": "ATCTCCATCGCTGGCGACGGCGAGCATCGCATCGCATCGCCGGAGTCACCTAGTGCAG", "binding signal": "3150 fluorescence intensity (a.u.)"},
      {"sequence": "GCCGCCGACCGCCACATATCCACACACCTCGACACGACGGCGGAGTCACCTAGTGCAG", "binding signal": "3200 fluorescence intensity (a.u.)"},
      {"sequence": "GCGCCACGTGGGCGACGCCGCCGTCGTGTCCTTCATACAGCGGAGTCACCTAGTGCAG", "binding signal": "14400 fluorescence intensity (a.u.)"}
    ]}
  ]
}
